We go through 36 targets from the supplement of paper PMC10849652.

Chains of the proteins cited; added tags and fusions are not shown. Lines headed by an entry give the natural chain unless they say otherwise; changes in a name come on top.
UniProt P49903: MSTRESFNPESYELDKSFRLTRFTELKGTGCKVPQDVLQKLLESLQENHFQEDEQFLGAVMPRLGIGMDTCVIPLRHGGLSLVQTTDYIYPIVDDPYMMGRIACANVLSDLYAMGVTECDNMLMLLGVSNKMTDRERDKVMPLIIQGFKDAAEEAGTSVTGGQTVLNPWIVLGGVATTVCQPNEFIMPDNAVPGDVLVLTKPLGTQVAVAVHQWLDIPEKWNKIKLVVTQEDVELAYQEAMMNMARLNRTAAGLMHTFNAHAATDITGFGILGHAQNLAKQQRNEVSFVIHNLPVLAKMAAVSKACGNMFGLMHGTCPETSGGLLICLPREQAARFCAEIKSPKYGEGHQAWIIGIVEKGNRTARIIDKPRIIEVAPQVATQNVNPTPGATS
UniProt Q9Y3B4: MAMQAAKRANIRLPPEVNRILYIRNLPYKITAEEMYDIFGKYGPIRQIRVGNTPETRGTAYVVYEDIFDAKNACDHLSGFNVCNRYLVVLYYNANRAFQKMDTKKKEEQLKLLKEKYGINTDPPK
UniProt P34897: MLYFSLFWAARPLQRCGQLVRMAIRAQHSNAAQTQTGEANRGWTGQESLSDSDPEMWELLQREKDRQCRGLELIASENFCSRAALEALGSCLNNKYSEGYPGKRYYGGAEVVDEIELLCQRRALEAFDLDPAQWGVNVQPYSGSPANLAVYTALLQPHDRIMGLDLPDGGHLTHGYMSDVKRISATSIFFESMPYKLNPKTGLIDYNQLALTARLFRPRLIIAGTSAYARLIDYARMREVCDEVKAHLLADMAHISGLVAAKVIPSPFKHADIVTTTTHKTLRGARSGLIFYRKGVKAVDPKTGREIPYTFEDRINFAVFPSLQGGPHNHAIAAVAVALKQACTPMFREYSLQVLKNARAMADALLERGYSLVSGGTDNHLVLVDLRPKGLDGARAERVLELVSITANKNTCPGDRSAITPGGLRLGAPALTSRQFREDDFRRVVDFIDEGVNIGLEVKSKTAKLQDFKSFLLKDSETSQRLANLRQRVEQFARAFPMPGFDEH
UniProt Q86VZ5: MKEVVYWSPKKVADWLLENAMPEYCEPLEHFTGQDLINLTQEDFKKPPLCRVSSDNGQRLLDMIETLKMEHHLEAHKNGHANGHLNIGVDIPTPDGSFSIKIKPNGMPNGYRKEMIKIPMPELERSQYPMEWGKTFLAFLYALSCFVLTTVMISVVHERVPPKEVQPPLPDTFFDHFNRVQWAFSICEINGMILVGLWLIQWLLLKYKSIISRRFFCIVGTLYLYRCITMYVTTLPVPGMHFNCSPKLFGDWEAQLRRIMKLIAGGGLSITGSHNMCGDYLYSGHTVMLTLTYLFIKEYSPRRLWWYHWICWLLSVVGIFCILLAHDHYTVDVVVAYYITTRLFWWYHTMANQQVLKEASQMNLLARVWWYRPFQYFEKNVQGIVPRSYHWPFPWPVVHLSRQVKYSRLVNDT
UniProt P01008, whole entry, looked up: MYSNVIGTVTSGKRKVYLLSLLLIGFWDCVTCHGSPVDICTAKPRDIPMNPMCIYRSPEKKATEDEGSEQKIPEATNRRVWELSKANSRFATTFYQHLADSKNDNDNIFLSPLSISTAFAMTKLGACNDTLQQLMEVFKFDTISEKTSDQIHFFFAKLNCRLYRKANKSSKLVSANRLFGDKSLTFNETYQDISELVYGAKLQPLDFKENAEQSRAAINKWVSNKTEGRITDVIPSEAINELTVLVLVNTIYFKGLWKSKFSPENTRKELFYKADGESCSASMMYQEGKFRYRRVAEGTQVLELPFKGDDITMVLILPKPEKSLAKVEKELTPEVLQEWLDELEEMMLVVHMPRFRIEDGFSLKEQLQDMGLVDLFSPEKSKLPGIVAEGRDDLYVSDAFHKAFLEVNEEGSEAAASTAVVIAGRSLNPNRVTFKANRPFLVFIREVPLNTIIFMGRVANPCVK
UniProt Q9UGP8: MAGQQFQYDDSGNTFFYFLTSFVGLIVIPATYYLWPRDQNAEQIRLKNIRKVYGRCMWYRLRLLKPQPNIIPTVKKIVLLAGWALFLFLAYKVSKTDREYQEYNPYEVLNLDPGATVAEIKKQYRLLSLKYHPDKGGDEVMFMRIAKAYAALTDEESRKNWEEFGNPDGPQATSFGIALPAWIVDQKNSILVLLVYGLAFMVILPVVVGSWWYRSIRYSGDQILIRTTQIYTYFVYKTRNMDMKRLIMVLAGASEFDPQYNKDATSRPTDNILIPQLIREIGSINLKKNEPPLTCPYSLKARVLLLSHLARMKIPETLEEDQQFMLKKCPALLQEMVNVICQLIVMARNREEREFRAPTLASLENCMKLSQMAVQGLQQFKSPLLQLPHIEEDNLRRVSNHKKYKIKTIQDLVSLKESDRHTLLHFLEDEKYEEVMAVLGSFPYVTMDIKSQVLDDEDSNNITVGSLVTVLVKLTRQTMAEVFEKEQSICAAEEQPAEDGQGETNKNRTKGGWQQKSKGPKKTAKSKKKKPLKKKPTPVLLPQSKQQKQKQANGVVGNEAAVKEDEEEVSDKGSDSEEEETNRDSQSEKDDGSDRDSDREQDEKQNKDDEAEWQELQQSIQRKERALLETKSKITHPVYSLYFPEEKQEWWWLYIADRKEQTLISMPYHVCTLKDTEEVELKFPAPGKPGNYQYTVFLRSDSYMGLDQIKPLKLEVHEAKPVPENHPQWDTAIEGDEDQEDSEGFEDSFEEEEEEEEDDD
UniProt O43236: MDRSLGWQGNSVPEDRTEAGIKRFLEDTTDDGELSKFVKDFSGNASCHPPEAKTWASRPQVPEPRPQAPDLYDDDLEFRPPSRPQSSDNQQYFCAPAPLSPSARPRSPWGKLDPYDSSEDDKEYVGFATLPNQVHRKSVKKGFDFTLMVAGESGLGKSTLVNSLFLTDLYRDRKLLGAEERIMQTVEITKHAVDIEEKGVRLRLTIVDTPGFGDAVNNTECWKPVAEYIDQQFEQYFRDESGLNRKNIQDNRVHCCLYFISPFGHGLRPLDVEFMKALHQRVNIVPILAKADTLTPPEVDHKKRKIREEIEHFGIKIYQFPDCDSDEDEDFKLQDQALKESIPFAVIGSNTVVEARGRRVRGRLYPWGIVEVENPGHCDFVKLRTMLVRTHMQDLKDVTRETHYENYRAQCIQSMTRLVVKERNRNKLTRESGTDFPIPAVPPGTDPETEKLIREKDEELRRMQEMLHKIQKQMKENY
UniProt P01011: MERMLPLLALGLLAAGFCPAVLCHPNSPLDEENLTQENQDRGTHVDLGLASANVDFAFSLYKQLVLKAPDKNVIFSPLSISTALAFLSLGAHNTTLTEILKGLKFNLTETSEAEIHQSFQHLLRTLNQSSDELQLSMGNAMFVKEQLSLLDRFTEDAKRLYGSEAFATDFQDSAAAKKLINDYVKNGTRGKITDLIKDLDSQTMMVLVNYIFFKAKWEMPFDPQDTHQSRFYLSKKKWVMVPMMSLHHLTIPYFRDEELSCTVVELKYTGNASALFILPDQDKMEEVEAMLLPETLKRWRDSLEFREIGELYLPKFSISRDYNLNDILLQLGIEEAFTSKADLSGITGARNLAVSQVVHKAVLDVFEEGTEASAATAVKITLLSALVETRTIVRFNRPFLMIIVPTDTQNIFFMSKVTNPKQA
UniProt Q15428: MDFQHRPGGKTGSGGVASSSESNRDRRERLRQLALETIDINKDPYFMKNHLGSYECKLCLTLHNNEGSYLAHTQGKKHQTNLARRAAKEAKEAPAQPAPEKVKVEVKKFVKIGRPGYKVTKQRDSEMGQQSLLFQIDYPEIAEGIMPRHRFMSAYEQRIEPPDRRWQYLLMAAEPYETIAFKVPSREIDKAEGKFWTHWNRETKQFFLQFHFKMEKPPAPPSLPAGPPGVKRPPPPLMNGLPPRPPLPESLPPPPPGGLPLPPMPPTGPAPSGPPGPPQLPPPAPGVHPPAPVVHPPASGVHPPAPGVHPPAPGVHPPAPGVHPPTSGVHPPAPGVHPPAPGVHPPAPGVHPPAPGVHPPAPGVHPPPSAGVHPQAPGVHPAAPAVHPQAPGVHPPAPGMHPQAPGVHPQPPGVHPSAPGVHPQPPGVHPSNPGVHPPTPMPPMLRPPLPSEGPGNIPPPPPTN
UniProt Q9H0K1: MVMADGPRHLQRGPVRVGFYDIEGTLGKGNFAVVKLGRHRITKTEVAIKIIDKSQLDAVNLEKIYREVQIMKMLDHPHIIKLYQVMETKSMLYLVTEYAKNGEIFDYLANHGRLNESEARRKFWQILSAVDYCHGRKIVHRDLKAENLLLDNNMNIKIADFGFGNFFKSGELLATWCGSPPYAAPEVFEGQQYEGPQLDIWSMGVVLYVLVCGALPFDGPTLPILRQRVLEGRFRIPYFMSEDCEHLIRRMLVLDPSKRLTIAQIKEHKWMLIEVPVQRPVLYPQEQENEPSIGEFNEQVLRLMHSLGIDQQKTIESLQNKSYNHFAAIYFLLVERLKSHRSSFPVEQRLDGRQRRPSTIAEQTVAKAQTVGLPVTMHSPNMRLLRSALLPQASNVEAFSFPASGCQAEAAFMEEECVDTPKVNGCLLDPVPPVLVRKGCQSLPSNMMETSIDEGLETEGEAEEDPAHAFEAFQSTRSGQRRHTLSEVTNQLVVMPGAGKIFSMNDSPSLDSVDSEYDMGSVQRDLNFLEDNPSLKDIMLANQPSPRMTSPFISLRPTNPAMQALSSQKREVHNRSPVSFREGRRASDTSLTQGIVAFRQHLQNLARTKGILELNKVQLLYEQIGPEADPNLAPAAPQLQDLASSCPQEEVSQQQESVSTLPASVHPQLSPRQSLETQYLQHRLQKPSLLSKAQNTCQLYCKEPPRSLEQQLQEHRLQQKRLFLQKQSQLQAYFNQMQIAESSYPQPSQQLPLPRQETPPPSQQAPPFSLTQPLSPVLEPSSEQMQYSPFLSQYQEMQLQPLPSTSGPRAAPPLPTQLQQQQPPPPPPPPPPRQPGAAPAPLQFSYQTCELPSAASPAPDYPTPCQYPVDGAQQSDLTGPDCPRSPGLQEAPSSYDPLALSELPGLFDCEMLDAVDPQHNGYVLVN
UniProt Q9H9B4: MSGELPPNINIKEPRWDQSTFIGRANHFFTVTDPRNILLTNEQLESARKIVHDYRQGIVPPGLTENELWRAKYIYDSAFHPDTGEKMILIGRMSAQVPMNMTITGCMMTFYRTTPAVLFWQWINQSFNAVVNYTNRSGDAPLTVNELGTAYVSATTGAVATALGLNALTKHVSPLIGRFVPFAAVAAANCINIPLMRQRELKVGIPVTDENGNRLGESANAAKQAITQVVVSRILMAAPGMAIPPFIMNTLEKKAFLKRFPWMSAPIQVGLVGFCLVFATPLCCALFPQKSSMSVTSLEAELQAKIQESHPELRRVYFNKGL
UniProt Q96EQ0: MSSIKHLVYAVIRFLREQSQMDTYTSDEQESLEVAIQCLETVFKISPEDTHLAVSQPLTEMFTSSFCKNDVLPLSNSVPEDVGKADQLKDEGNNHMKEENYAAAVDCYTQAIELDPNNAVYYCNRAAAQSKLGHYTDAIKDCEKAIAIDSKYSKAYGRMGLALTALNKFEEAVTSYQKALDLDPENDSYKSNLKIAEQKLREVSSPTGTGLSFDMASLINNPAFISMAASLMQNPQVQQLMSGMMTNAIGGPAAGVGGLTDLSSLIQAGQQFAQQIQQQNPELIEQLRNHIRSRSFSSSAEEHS
UniProt P30740: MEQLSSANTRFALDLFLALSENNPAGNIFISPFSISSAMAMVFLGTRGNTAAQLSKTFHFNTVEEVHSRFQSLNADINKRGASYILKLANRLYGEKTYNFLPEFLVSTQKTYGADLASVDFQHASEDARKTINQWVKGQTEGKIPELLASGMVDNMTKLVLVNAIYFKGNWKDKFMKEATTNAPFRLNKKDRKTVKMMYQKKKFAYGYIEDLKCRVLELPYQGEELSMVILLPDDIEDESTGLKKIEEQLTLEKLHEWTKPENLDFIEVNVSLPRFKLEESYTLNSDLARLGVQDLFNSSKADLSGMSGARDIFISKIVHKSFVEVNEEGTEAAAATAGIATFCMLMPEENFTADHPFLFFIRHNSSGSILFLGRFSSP
UniProt Q96BD8: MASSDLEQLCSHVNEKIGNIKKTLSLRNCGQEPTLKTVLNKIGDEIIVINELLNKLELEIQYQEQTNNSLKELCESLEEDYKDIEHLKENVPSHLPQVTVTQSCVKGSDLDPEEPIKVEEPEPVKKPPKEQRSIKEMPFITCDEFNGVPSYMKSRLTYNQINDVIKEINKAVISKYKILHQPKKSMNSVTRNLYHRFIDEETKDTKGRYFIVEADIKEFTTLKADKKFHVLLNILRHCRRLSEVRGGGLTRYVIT
UniProt P36952: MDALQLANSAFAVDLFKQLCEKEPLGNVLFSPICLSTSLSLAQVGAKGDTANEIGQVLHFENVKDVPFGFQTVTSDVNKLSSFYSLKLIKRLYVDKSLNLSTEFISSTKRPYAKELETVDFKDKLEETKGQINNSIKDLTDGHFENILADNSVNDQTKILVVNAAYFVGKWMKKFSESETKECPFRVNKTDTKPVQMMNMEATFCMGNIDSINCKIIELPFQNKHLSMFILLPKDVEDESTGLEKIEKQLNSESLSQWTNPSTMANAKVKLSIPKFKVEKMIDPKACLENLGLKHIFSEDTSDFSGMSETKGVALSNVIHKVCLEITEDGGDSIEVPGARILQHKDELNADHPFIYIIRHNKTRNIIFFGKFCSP

This is one part of the list.

Compound in the assay: c1cn2cc(-c3ccc4cn[nH]c4c3)nc(Nc3ccc(N4CCOCC4)cc3)c2n1 [entospletinib]
Briefly: log2 fold change, soluble protein after heating vs DMSO (PISA); higher = thermal stabilisation; K562 cells, 10 uM, 30 min; active = over 0.2 and 3.5 SD of the protein, either way, in both replicates (recomputed). Put shortly:
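Quantification of soluble protein used TMTpro 16plex LC-MS/MS, with channel sums equalised. Samples were the supernatant after 21,000xg for 90 min of pooled aliquots from K562 cells (2×10^6 cells/mL) treated with 10 μM compound for 30 min, heated for 3 min over 48°C-58°C, and extracted in PBS with 0.5% NP-40 at 4°C. Values, from duplicates, describe thermal stability against control samples on a log2 fold-change scale.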
In the case of SEPHS1 (UniProt P49903), the log2 fold change was inactive: -0.027. The value for SIRT5 (UniProt Q9NXA8) was inactive: 0.016; that for SERPINB8 (UniProt P50452) was inactive: -0.029; that for SH3GL3 isoform 3 (UniProt Q99963) was inactive: -0.287. The value for SEC61B (UniProt P60468) was inactive: 0.051; that for SIAH2 (UniProt O43255) was inactive: -0.072. The value for SF3B6 (UniProt Q9Y3B4) was inactive: -0.047. Regarding SHTN1 isoform 3 (UniProt A0MZ66), the log2 fold change was inactive: 0.062. The value for SHMT2 (UniProt P34897) was inactive: -0.006; that for SETDB1 (UniProt Q15047) was inactive: 0.025; that for SELENOK (UniProt Q9Y6D0) was inactive: -0.039. The value for SGF29 (UniProt Q96ES7) was inactive: 0.007; that for SGMS1 (UniProt Q86VZ5) was inactive: 0.024.

For SEPTIN11 isoform 2 (UniProt Q9NVA2), the log2 fold change was inactive: 0.001.

Turning to SERPINC1 (UniProt P01008), the log2 fold change is inactive: 0.309.

As for SERBP1 (UniProt Q8NC51), the log2 fold change was inactive: 0.063. The same measure for SERPINB6, A0A087X1N8: inactive: -0.031; for SFPQ (UniProt P23246): inactive: 0.106. The same measure for SEC63 (UniProt Q9UGP8): inactive: -0.047; for SF3B4 (UniProt Q15427): inactive: -0.09; for SLAIN2 (UniProt Q9P270): inactive: -0.021. As to SEPTIN4 isoform 4 (UniProt O43236), the log2 fold change is inactive: -0.217. The value for SERPINA3 (UniProt P01011) was inactive: -0.027; that for SH3BP1 (UniProt Q9Y3L3) was inactive: -0.007.

As for SH2D2A isoform 2 (UniProt Q9NP31), the log2 fold change was inactive: 0.077. The value for SF3B2 (UniProt Q13435) was inactive: -0.023. The value for SF3A2 (UniProt Q15428) was inactive: -0.078; that for SEPSECS (UniProt Q9HD40) was inactive: -0.032. On to SIK2 (UniProt Q9H0K1), for which the log2 fold change is inactive: -0.152.

As to SELENOT (UniProt P62341), the log2 fold change was inactive: -0.01. The same measure for SFXN1 (UniProt Q9H9B4): inactive: -0.027. The same measure for SGTB (UniProt Q96EQ0): inactive: 0.027; for SERPINB1 (UniProt P30740): inactive: 0.013; for SKA1 (UniProt Q96BD8): inactive: 0.259. Regarding SH3BGRL3 (UniProt Q9H299), the log2 fold change was inactive: -0.004. The same measure for SERPINB5 (UniProt P36952): inactive: 0.027.
